Some entries share one result that the patent states for a list of compounds. Some compounds share one range, which may span the group rather than tell each member. Residues, ends and D or L forms follow the SMILES beside them.
System: CD8+ T cells
Experiment: Tetramer/gB peptide complex staining of CD8+ T cells in PBMCs
Assay type: cell-based, human
Settings: highest frequencies, with or without in vitro expansion; HSV-1 seropositive individuals
Experimental: The frequency of CD8+ T cells specific to each of the 10 gB predicted epitope peptides was first determined in PBMCs isolated as described in Example 7 from HSV-1 seropositive individuals using peptide/PE-labeled HLA-A*02:01 tetramers, together with FITC-conjugated mAb specific to human CD8+ T cells (FIG. 3A and Example 10). […] The highest frequencies of tetramer+ CD8+ T cells, detected with or without in vitro expansion, were recorded against gB183-191, gB342-350, and gB561-569 peptide epitopes (5.5-8.9%).
The subdominant epitope gB675-683 was used as control. To obtain an objective enumeration of gB epitope-specific CD8+ T cells, each tetramer was tested at three or four dilutions and the numbers (instead of percentage) of epitope-specific CD8+ T cells per 100,000 T cells were determined.
Flow cytometry analysis. For each stimulation condition, at least 500,000 total events were acquired on a BD LSR II, and data analysis was performed using FlowJo version 9.5.2 (Tree Star). PBMCs were analyzed by flow cytometry after staining with fluorochrome-conjugated human specific mAbs. FITC-conjugated CD8 (clone HIT8A) and FITC-conjugated HLA-A2 (clone BB7.2) were purchased from BD Pharmingen. PE-conjugated gB peptide/tetramer complexes were gifted by the National Institutes of Health Tetramer Facility. A total of 10^6 PBMCs were stained in PBS containing 1% BSA and 0.1% sodium azide (FACS buffer) for 45 minutes at 4° C. followed by three washes in FACS buffer and fixed in 1% paraformaldehyde. The gating strategy was similar to that by Chentoufi, A. et al., HLA-A*0201-restricted CD8^+ cytotoxic T lymphocyte epitopes identified from herpes simplex virus glycoprotein D. J. Immunol. […]
Tetramer/gB Peptide Complexes Staining. Fresh PBMCs were analyzed for the frequency of CD8^+ T cells recognizing the gB peptide/tetramer complexes, as previously described Nesburn, A. et al., Topical/mucosal delivery of sub-unit vaccines that stimulate the ocular mucosal immune system. […] The cells were then acquired on a BD LSR II and data were analyzed using FlowJo version 9.5.2 (Tree Star).

Row | Compound | frequencies of tetramer+ CD8+ T cells
1 | CC[C@H](C)[C@H](NC(=O)CN)C(=O)N[C@@H](Cc1ccccc1)C(=O)N[C@@H](CCC(=O)O)C(=O)N[C@@H](CC(=O)O)C(=O)N[C@@H](CCCNC(=N)N)C(=O)N[C@@H](C)C(=O)N1CCC[C@H]1C(=O)N[C@H](C(=O)O)C(C)C [gB183-191] (H-GIFEDRAPV-OH; N-terminus and C-terminus assumed) | 5.5-8.9%
2 | CC(C)C[C@H](NC(=O)[C@H](CC(C)C)NC(=O)[C@@H](N)CC(N)=O)C(=O)N[C@H](C(=O)N[C@H](C(=O)N1CCC[C@H]1C(=O)N[C@@H](CCCCN)C(=O)N[C@@H](Cc1ccccc1)C(=O)N[C@H](C(=O)O)[C@@H](C)O)[C@@H](C)O)[C@@H](C)O [gB342-350] (H-NLLTTPKFT-OH; N-terminus and C-terminus assumed) | 5.5-8.9%
3 | CSCC[C@H](NC(=O)[C@@H](NC(=O)[C@H](CC(=O)O)NC(=O)CNC(=O)[C@H](CC(C)C)NC(=O)[C@H](CCSC)NC(=O)[C@@H](N)CCCNC(=N)N)C(C)C)C(=O)N[C@@H](C)C(=O)N[C@H](C(=O)O)C(C)C [gB561-569] | 5.5-8.9%
